The supplement of paper PMC9254222
In all, about 1,100 compounds were measured (“Wnt reporter firefly/Renilla luciferase ratio relative to plate median”: median about 1.1, highest 2% from about 1.6 on). This is a selection; strong and weak results do not stand in their true shares.

System: HEK293T (UBE3A T485A transfected, BAR Wnt reporter)
Test: Wnt reporter firefly/Renilla luciferase ratio relative to plate median (fold (linear ratio)); higher = more Wnt/beta-catenin reporter activation
Conditions: 24 h
In short: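 HEK293T cells were grown in DMEM with 10% FBS at 37°C and 5% CO2, at 4500 cells/well in white 384-well plates. They were transfected with a BAR firefly luciferase Wnt reporter, TK-Renilla and an expression plasmid using Fugene 6. Four hours later, robots dosed the chemicals at 0.01–100 uM for 24 h, followed by Dual-Glo luciferase readout. Wnt activity (firefly/Renilla ratio) and cell health (raw Renilla) were median-centred per plate, averaged over four biological replicates.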

Row | Compound | Wnt reporter firefly/Renilla luciferase ratio (concentration: 0.1 uM) | Wnt reporter firefly/Renilla luciferase ratio (concentration: 1 uM) | Wnt reporter firefly/Renilla luciferase ratio (concentration: 10 uM) | Wnt reporter firefly/Renilla luciferase ratio (concentration: 100 uM) | Wnt reporter firefly/Renilla luciferase ratio (concentration: 0.01 uM)
1 | Oc1c(Cl)c(Cl)c(Cl)c(Cl)c1Cl [Pentachlorophenol] | 1.04 | 1.08 | 0.963 | 0.759 | –
2 | CCCCSP(=O)(SCCCC)SCCCC [Tribufos] | 1.4 | 1.17 | 1.38 | 0.296 | 1.21
3 | [OH][Sn]([c]1ccccc1)([c]1ccccc1)[c]1ccccc1 [Triphenyltin hydroxide] | 1.32 | 0.361 | – | – | 1.28
4 | CCCCN(CCCC)N=O [N-Nitrosodibutylamine] | 0.968 | 0.902 | 1.04 | 1.27 | –
5 | Cc1ccc(N=C=O)cc1N=C=O [Toluene-2,4-diisocyanate] | 0.92 | 1.12 | 1.04 | 0.634 | –
6 | COC(=O)Nc1nc2ccccc2[nH]1 [Carbendazim] | 1.09 | 1.16 | 0.661 | 0.13 | –
7 | CC(=O)[O][Hg][c]1ccccc1 [Phenylmercuric acetate] | 1.22 | 0.898 | – | – | –
8 | C[Si](Cn1cncn1)(c1ccc(F)cc1)c1ccc(F)cc1 [Flusilazole] | 1.15 | 1.14 | 0.76 | 0.233 | 1.16
9 | Nc1ccc(Cc2ccc(N)cc2)cc1 [4,4'-Methylenedianiline] | 0.986 | 0.929 | 0.859 | 0.755 | –
10 | c1cc2c3c(cccc3c1)CC2 [Acenaphthene] | 1.11 | 0.989 | 1.28 | 1.37 | –
11 | S=C1NCCN1 [Ethylene thiourea] | 0.79 | 0.959 | 0.777 | 1.14 | 0.774
12 | OCCOc1ccccc1 [2-Phenoxyethanol] | 0.531 | 0.545 | 0.71 | 0.949 | 0.516
13 | CC12CC1(C)C(=O)N(c1cc(Cl)cc(Cl)c1)C2=O (centres undefined) [Procymidone] | 1.01 | 0.884 | 0.894 | 0.955 | –
14 | CCCCC(CC)COC(=O)c1ccccc1C(=O)O (centres undefined) | 0.861 | 1.04 | 0.979 | 0.821 | 1.04
15 | COC(=O)C(C)Oc1ccc(Oc2ccc(Cl)cc2Cl)cc1 (centres undefined) [Diclofop-methyl] | 1.28 | 1.98 | 1.27 | 1.29 | 1.1
16 | C=CCC1=C(C)[C@@H](OC(=O)[C@@H]2[C@@H](C=C(C)C)C2(C)C)CC1=O [S-Bioallethrin] | 1.29 | 1.27 | 1.22 | 1.09 | 1.29
17 | CNC(=O)CSP(=S)(OC)OC [Dimethoate] | 0.993 | 1.02 | 1.02 | 1.1 | 0.95
18 | COc1cc(OC)nc(NC(=O)[N-]S(=O)(=O)c2ncccc2OCC(F)(F)F)n1.[Na+] [Trifloxysulfuron-sodium] | 1.02 | 1.23 | 1.22 | 1.52 | 1.06
19 | Nc1ccc(Cl)cc1N [4-Chloro-1,2-diaminobenzene] | 1.1 | 1.03 | 0.852 | – | –
20 | CCOC(=O)C(Cl)Cc1cc(-n2nc(C)n(C(F)F)c2=O)c(F)cc1Cl (centres undefined) [Carfentrazone-ethyl] | 0.973 | 0.982 | 0.945 | 1.28 | 1.07
21 | ClC1=C(Cl)C2(Cl)C3C4CC(C5OC45)C3C1(Cl)C2(Cl)Cl (centres undefined) [Endrin] | 1.07 | 0.855 | 1.12 | 0.323 | –

Exported tab-delimited: entries from further up
Row	Compound	Wnt reporter firefly/Renilla luciferase ratio (concentration: 0.1 uM)	Wnt reporter firefly/Renilla luciferase ratio (concentration: 1 uM)	Wnt reporter firefly/Renilla luciferase ratio (concentration: 10 uM)	Wnt reporter firefly/Renilla luciferase ratio (concentration: 100 uM)	Wnt reporter firefly/Renilla luciferase ratio (concentration: 0.01 uM)
20	CCOC(=O)C(Cl)Cc1cc(-n2nc(C)n(C(F)F)c2=O)c(F)cc1Cl (centres undefined) [Carfentrazone-ethyl]	0.973	0.982	0.945	1.28	1.07
21	ClC1=C(Cl)C2(Cl)C3C4CC(C5OC45)C3C1(Cl)C2(Cl)Cl (centres undefined) [Endrin]	1.07	0.855	1.12	0.323	–

Later entries:

Row | Compound | Wnt reporter firefly/Renilla luciferase ratio (concentration: 0.1 uM) | Wnt reporter firefly/Renilla luciferase ratio (concentration: 1 uM) | Wnt reporter firefly/Renilla luciferase ratio (concentration: 10 uM) | Wnt reporter firefly/Renilla luciferase ratio (concentration: 100 uM) | Wnt reporter firefly/Renilla luciferase ratio (concentration: 0.01 uM)
22 | ClC1=C(Cl)C2(Cl)C3C4CC(C5OC45)C3C1(Cl)C2(Cl)Cl (centres undefined) [Dieldrin] | 0.889 | 0.963 | 1.08 | 1.16 | –
23 | Oc1ccc(Cl)cc1Cc1ccccc1 [Clorophene] | 1.05 | 1.07 | 0.943 | – | 0.901
24 | COC(=O)N(C(=O)N1CO[C@@]2(C(=O)OC)Cc3cc(Cl)ccc3C2=N1)c1ccc(OC(F)(F)F)cc1 [Indoxacarb] | 0.96 | 1.2 | 0.895 | 0.242 | 0.92
25 | CCOP(=S)(OCC)Oc1cc(C)nc(C(C)C)n1 [Diazinon] | 0.815 | 1.01 | 1.25 | 1.14 | 0.789
26 | CCOP(=S)(OCC)Oc1ccc2c(C)c(Cl)c(=O)oc2c1 [Coumaphos] | 0.808 | 0.989 | 1.05 | 1.32 | 0.839
27 | NC(=O)[O-].[NH4+] [Ammonium carbamate] | 0.817 | 0.94 | 0.934 | 1.31 | –
28 | N#CC(CCc1ccc(Cl)cc1)(Cn1cncn1)c1ccccc1 (centres undefined) [Fenbuconazole] | 1.01 | 1.03 | 0.614 | 0.347 | 1.07
29 | COP(=O)(NC(C)=O)SC (centres undefined) [Acephate] | 1.19 | 1.03 | 1.08 | 1.16 | 1.49
30 | COP(=O)(OC)OC=C(Cl)Cl [Dichlorvos] | 1.67 | – | – | – | –
31 | CCN(CC)c1nc(C)cc(OP(=S)(OC)OC)n1 [Pirimiphos-methyl] | 1.12 | 1.11 | 1.23 | 1.5 | 1.29
32 | O=C(N[C@H]1CN2CCC1CC2)c1ccc2c(c1)OCCO2 | 1 | 1.05 | 1.15 | 1.12 | –
33 | Nc1ccc(/N=N/c2ccccc2)cc1 [4-Aminoazobenzene] | 1.33 | 1.25 | 1.37 | 1.28 | –
34 | CCCCC(CC)COC(=O)c1ccc(C(=O)OCC(CC)CCCC)cc1 (centres undefined) [Bis(2-ethylhexyl) terephthalate] | 1.01 | 1.03 | 0.825 | 1.26 | –
35 | O=C(O)C(Cl)Cl [Dichloroacetic acid] | 1.04 | 0.862 | 1.1 | 1.33 | –
36 | COP(=O)(OC)C(O)C(Cl)(Cl)Cl (centres undefined) [Trichlorfon] | 1.1 | 1.06 | 1.1 | 0.494 | 1.06
37 | CCCCNC(=O)n1c(NC(=O)OC)nc2ccccc21 [Benomyl] | 0.957 | 0.996 | 0.468 | 0.876 | 1.07
38 | CNC(=O)Oc1cccc2c1OC(C)(C)C2 [Carbofuran] | 0.917 | 0.916 | 0.727 | 0.571 | –
39 | OCCOCCO [Diethylene glycol] | 0.95 | 1.26 | 1.09 | 1.15 | –
40 | CCCCCCCCCC(CC)c1ccc(S(=O)(=O)O)cc1.OCCN(CCO)CCO (centres undefined) [Dodecylbenzene sulfonate triethanolamine(1:1)] | 1.13 | 1.29 | 1.13 | 1.01 | –
41 | c1cc2ccc3cccc4ccc(c1)c2c34 [Pyrene] | 1.09 | 0.96 | 1.05 | 0.354 | –
42 | CN(C)N=O [N-Nitrosodimethylamine] | 1.12 | 1.34 | 1.34 | 1.25 | –
